Percent effect of library compounds

Sequences of proteins named here, by UniProt entry; tags and fusion partners are left off. Residues count along the entry.
UniProt P9WPC5, whole entry: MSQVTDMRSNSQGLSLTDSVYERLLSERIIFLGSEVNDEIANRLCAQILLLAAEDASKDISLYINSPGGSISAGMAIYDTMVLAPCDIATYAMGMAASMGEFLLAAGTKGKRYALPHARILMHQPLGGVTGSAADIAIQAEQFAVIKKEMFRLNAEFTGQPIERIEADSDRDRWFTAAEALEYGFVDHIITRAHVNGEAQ
UniProt P9WPC3, whole entry partner: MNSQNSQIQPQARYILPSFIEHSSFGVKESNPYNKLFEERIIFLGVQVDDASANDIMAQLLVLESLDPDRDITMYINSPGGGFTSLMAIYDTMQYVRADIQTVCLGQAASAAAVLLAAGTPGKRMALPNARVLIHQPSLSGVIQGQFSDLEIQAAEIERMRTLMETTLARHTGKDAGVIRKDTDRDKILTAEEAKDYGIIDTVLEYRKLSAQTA
UniProt Q4DA54, 1-478: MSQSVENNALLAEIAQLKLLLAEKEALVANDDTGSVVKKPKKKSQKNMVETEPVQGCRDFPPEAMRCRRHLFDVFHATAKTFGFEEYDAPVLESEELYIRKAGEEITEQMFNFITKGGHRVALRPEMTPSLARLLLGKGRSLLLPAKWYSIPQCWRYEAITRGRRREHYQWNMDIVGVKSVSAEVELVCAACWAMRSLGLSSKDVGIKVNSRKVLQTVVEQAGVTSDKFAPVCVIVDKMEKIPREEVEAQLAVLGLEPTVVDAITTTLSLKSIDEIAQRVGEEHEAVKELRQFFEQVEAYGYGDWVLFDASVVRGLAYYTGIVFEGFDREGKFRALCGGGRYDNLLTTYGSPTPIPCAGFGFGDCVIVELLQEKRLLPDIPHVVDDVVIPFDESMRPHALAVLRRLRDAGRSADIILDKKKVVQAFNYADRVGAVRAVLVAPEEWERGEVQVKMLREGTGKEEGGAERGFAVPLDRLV
UniProt P9WNZ1, whole entry: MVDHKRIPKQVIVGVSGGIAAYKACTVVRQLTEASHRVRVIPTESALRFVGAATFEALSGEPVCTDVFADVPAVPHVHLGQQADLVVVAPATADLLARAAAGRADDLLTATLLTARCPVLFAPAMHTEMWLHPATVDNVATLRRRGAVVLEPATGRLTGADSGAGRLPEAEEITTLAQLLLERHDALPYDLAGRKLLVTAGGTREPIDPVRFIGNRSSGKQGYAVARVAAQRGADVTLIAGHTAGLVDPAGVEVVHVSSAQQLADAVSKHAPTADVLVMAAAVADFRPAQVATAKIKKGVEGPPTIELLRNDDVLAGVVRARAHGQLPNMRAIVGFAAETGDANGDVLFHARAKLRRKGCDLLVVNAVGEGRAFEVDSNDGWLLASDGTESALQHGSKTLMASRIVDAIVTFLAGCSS

ClpP1P2: 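Protease assay of ClpP1P2, read by the AMC dye that it sets free. Target: ClpP1P2, Mycobacterium tuberculosis (UniProt P9WPC5 and UniProt P9WPC3). Concentration: 50 µM. Direction is inferred from only a few compounds that gave an IC50; most scored high, so higher reads as stronger inhibition. Most other retested compounds had strongly negative values. Size under these conditions: about 69,000 compounds, about 10 of them at 50% or above in at least one test.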
Toxoplasma: 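Assay of Toxoplasma gondii numbers, read through their beta-galactosidase reporter with a colour substrate. Concentration: 10 µM. The record gives no direction; the compounds picked for IC50 retests had high values, so higher reads as fewer parasites. About 67,000 compounds were tested under these conditions; 0.38% (about 260) showed 50% or more at least once.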
Leishmania in macrophages: 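Cell assay of Leishmania donovani living inside macrophages; the read-out is not stated. Compounds at 30 µM. The record gives no direction; compounds that gave an IC50 in retests scored well above the rest, so higher reads as stronger inhibition. Of about 69,000 compounds tested this way, about 1,000 (1.5%) reached 50% or more in at least one test.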
TcHisRS: 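Enzyme assay of histidyl-tRNA synthetase; the read-out is not stated. Target: Histidine-tRNA ligase, Trypanosoma cruzi CL Brener (UniProt Q4DA54). Tested at 30 µM. Higher reads as stronger inhibition (inferred: compounds with an IC50 in retests scored well above the rest). Of about 69,000 compounds tested this way, about 31 (0.045%) reached 50% or more in at least one test.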
CoaBC: 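Coenzyme A biosynthesis protein CoaBC, Mycobacterium tuberculosis (UniProt P9WNZ1). Enzyme assay of CoaBC with a phosphate dye (Biomol Green) read at 650 nm. Compounds at 30 µM. Direction is inferred from only a few compounds that gave an IC50; most scored high, so higher reads as stronger inhibition. Most strong results did not repeat in a second test. Size under these conditions: about 67,000 compounds, about 40 of them at 50% or above in at least one test.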

The filed quantity is “Percent Effect” (%). The record does not define 0% and 100%; most values in the screen are far below 50% and negative numbers occur (in some assays of this library far below -100). The compounds are a random part of those screened. Two or more numbers in one place are separate tests of the same structure; such repeats can differ widely. A dash means the value is not listed here; it may have been measured.

compound: CC1CCN(CCNC(=O)c2ccn(-c3ccccc3)n2)CC1
ClpP1P2: -7.289
Toxoplasma: -7.925
Leishmania in macrophages: 30.89
TcHisRS: 6.897
CoaBC: 4.774

compound: Cc1cc(C(=O)N2CC[C@H]3[C@@H]2CCC(=O)N3c2ccccc2)no1
ClpP1P2: -11.13
TcHisRS: 5.102
CoaBC: 3.09

compound: COCCC(=O)N1CCCC1c1cccc(C)c1C (stereo not drawn)
ClpP1P2: 6.544
Toxoplasma: -25.27
Leishmania in macrophages: -4.234
TcHisRS: 0.6494
CoaBC: 7.618

compound: COc1ccc(C(=O)N2CCOCC2c2ccc(C)o2)cc1 (stereo not drawn)
ClpP1P2: -5.327
Toxoplasma: 4.186
Leishmania in macrophages: -8.575
TcHisRS: 13.33
CoaBC: -11.16

compound: CSc1nc(C2CC2)nc(C)c1C(=O)NCc1ncc(C)o1
ClpP1P2: -6.35
Toxoplasma: -13.7
Leishmania in macrophages: 19.65
TcHisRS: 7.407
CoaBC: -1.72

compound: CCN1C[C@H]2[C@@H](C1)N(S(=O)(=O)c1cccnc1)CC[C@H]2OC
ClpP1P2: 20.72
TcHisRS: -1.639
CoaBC: 13.76 and 33.16

compound: COCCn1c2c(ccc1=O)CCN(C(=O)Cc1cccs1)CC2
ClpP1P2: 3.845
Toxoplasma: 8.616
Leishmania in macrophages: 20.34
TcHisRS: 8.38
CoaBC: 4.727

compound: CC(NCc1ccc(OCC(N)=O)cc1)c1ccc(Cl)cc1 (stereo not drawn)
ClpP1P2: 1.554
TcHisRS: 4.082
CoaBC: -2.622

compound: Cc1nn(C)c2nc(N(Cc3nccs3)C3CC3)sc12
ClpP1P2: -2.601
Toxoplasma: -11.93
Leishmania in macrophages: 31.32
TcHisRS: 7.879
CoaBC: 8.029

compound: Cc1nc(CN2CCC3(CCN(C(=O)c4ccoc4C)CC3)C2)cs1.O=C(O)C(F)(F)F
Toxoplasma: 1.507
Leishmania in macrophages: 6.696

compound: CCOc1ccc(CN2CCC3(CC2)CNC(=O)C3)cn1
ClpP1P2: -15.1
Toxoplasma: 7.027
Leishmania in macrophages: 14.44
TcHisRS: 1.622
CoaBC: 9.402

compound: Cc1ccc(CN2CCc3c(COC(C)C)nn(C)c3C2)s1
ClpP1P2: -20.55
TcHisRS: -0.8772
CoaBC: 2.096

compound: O=C(O)C(F)(F)F.[H][C@@]12C[C@@H](C(=O)NC(C)C)C[C@@]1([H])N(CC1CC1)CCO2
Toxoplasma: -3.591
Leishmania in macrophages: -11.19 and 3.949

compound: CN(C)C1CCCN(Cc2cccc(Cn3cccn3)c2)CC1 (stereo not drawn)
ClpP1P2: -13.17
Toxoplasma: -40.71
Leishmania in macrophages: -3.498
TcHisRS: 3.518
CoaBC: -0.1206

compound: COC(=O)c1cccc(C(=O)N2CCN(c3ccc(Cl)cc3)CC2)n1
ClpP1P2: -13.47
Toxoplasma: -5.19
Leishmania in macrophages: 27.98
TcHisRS: 4.523
CoaBC: 3.73

compound: COCC(c1cccc(C(F)(F)F)c1)N(C)C(=O)c1ccccn1 (stereo not drawn)
ClpP1P2: -13.94
Toxoplasma: 2.064
Leishmania in macrophages: 25.33
TcHisRS: 7.101
CoaBC: 2.408

compound: Cc1csc(C(=O)N2CC(S(=O)(=O)C3CCCCC3)C2)c1
ClpP1P2: -7.889
Toxoplasma: 6.409
Leishmania in macrophages: 31.58
TcHisRS: -1.587
CoaBC: -0.994

compound: CSc1ccc(-c2cc(CN)nc3ccnn23)cc1.Cl
Toxoplasma: 9.072
Leishmania in macrophages: 11.36 and 31.74

compound: O=C(O)C(F)(F)F.[H][C@]12CN(C)C[C@@]1(C(=O)O)CCCN(C(=O)NCc1ccccc1)C2
Toxoplasma: 11.42
Leishmania in macrophages: 6.687

compound: O=C1NC2(Cc3ccccc31)CN(CC1CCOCC1)C2
ClpP1P2: 13.38
Toxoplasma: -2.814
Leishmania in macrophages: 19.89
TcHisRS: -1.775
CoaBC: -3.421

compound: Cc1cccc(C(=O)N2CCCN(CCCSCC#N)CC2)c1
ClpP1P2: -0.7659
Toxoplasma: 3.909
Leishmania in macrophages: 21.62
TcHisRS: 8.04
CoaBC: -0.8078

compound: O=C(c1cnns1)N1CCN(Cc2ccc(F)cc2Cl)CC1
ClpP1P2: 6.024
Toxoplasma: 1.808
Leishmania in macrophages: 18.01
TcHisRS: 4.516
CoaBC: 2.174

compound: CCOc1ccc(N2CCCN=C2NC(=O)c2ccccc2C)cc1
ClpP1P2: 6.367
Toxoplasma: -3.959
Leishmania in macrophages: 20.79
TcHisRS: 7.531
CoaBC: -7.727

compound: [H][C@]12CN(C(=O)OCCOC)CCN1C[C@@H](CO)[C@@H]2c1ccccc1
Toxoplasma: -64.5
Leishmania in macrophages: -5.426

compound: c1cnn(CC2CN(CC3CCCCC3)CCO2)c1 (stereo not drawn)
ClpP1P2: -8.567
Toxoplasma: -1.369
Leishmania in macrophages: -2.557
TcHisRS: 5.983
CoaBC: -6.702

The first 2 entries again:

compound,ClpP1P2,Toxoplasma,Leishmania in macrophages,TcHisRS,CoaBC
CC1CCN(CCNC(=O)c2ccn(-c3ccccc3)n2)CC1,-7.289,-7.925,30.89,6.897,4.774
Cc1cc(C(=O)N2CC[C@H]3[C@@H]2CCC(=O)N3c2ccccc2)no1,-11.13,-,-,5.102,3.09

The values are deposited in ChEMBL (CHEMBL3988442, “University of Dundee, Small-Polar-MMV Screening Library” (2021)).